Assay results reported in publication doi:10.1101/2020.04.03.023895.
These are yes or no findings as the source states them, for the method shown. In cells and extracts the contact can be indirect. Where a sequence is shown, tags or fusion partners need not be part of it.

Target: T1, GST-Med19 ΔBS1-BS2 mutant (Drosophila) (UniProt Q9VVL6)
T1 sequence: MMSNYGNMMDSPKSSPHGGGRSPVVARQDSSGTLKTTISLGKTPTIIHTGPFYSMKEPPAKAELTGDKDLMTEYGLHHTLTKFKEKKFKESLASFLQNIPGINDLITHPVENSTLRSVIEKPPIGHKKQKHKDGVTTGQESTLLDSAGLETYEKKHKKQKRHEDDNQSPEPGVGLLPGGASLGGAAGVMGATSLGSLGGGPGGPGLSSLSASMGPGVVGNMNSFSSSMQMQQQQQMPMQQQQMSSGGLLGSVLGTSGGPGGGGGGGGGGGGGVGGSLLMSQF
Assay: pull-down

binding: no binding
Substance: Pnr 1-291 HA tagged form (from UniProt P52168 1-291) (domain or fragment)
